{"source": "PubChem BioAssay AID1159584 (Peter MacCallum Cancer Centre, 2016)", "test": "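Knock-downs that harm CDH1-null cells more than parental MCF10A cells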 (primary screen)", "system": "human MCF10A breast epithelial cells, parental and CDH1-null", "knock-down reagent": "siRNA against human genes", "read-out": "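Cell viability by CellTiter-Glo ATP luminescence, each line scaled to the mean of mock wells across plates, then CDH1-null over parental ratio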", "scale": "CDH1-null / parental viability ratio: higher = CDH1-null cells survive relatively better than parental; CDH1-null viability vs mock: higher = more viable CDH1-null cells", "units": "CDH1-null viability vs mock in fraction of mock", "note": "Shown is a random part of about 18,000 deposited reagents. Further read-outs or replicates are left out here. No sequences are given here. Not given: the amount of reagent, the time to read-out."}
{"gene": "UTP4", "CDH1-null / parental viability ratio": 1.41, "CDH1-null viability vs mock": 0.9}
{"gene": "IFNGR1", "CDH1-null / parental viability ratio": 1.13, "CDH1-null viability vs mock": 1.02}
{"gene": "WNT10A", "CDH1-null / parental viability ratio": 0.87, "CDH1-null viability vs mock": 0.62}
{"gene": "ZDHHC22", "CDH1-null / parental viability ratio": 0.8, "CDH1-null viability vs mock": 0.4}
{"gene": "HTR1B", "CDH1-null / parental viability ratio": 0.86, "CDH1-null viability vs mock": 0.93}
{"gene": "DEFB118", "CDH1-null / parental viability ratio": 0.8, "CDH1-null viability vs mock": 0.78}
{"gene": "IST1", "CDH1-null / parental viability ratio": 1.06, "CDH1-null viability vs mock": 0.5}
{"gene": "LONP2", "CDH1-null / parental viability ratio": 1.03, "CDH1-null viability vs mock": 0.64}
{"gene": "GNAZ", "CDH1-null / parental viability ratio": 1.24, "CDH1-null viability vs mock": 0.77}
{"gene": "TCEA1", "CDH1-null / parental viability ratio": 0.95, "CDH1-null viability vs mock": 0.89}
{"gene": "CRIP1", "CDH1-null / parental viability ratio": 1.1, "CDH1-null viability vs mock": 0.54}
{"gene": "FBXL2", "CDH1-null / parental viability ratio": 1.08, "CDH1-null viability vs mock": 0.99}
{"gene": "SART1", "CDH1-null / parental viability ratio": 1.4, "CDH1-null viability vs mock": 0.21}
{"gene": "KLK11", "CDH1-null / parental viability ratio": 1.48, "CDH1-null viability vs mock": 0.8}
{"gene": "BEND3", "CDH1-null / parental viability ratio": 0.71, "CDH1-null viability vs mock": 0.54}
{"gene": "CFAP36", "CDH1-null / parental viability ratio": 1.1, "CDH1-null viability vs mock": 0.57}
{"gene": "UQCC3", "CDH1-null / parental viability ratio": 0.92, "CDH1-null viability vs mock": 0.73}
{"gene": "BACH1", "CDH1-null / parental viability ratio": 0.87, "CDH1-null viability vs mock": 0.68}
{"gene": "MMP15", "CDH1-null / parental viability ratio": 1.25, "CDH1-null viability vs mock": 0.7}
{"gene": "RAD54L2", "CDH1-null / parental viability ratio": 0.88, "CDH1-null viability vs mock": 0.52}
{"gene": "ADGRG2", "CDH1-null / parental viability ratio": 1.42, "CDH1-null viability vs mock": 0.88}
{"gene": "CHM", "CDH1-null / parental viability ratio": 1.15, "CDH1-null viability vs mock": 1.15}
{"gene": "ZNF500", "CDH1-null / parental viability ratio": 1.05, "CDH1-null viability vs mock": 0.97}
{"gene": "ZFR2", "CDH1-null / parental viability ratio": 1, "CDH1-null viability vs mock": 0.72}
{"gene": "MYL10", "CDH1-null / parental viability ratio": 0.86, "CDH1-null viability vs mock": 0.77}
{"gene": "NHP2", "CDH1-null / parental viability ratio": 0.83, "CDH1-null viability vs mock": 0.4}
{"gene": "PRDM11", "CDH1-null / parental viability ratio": 0.86, "CDH1-null viability vs mock": 0.59}
{"gene": "PABPC1", "CDH1-null / parental viability ratio": 0.92, "CDH1-null viability vs mock": 0.83}
{"gene": "SPN", "CDH1-null / parental viability ratio": 0.78, "CDH1-null viability vs mock": 0.7}
{"gene": "ANKRD1", "CDH1-null / parental viability ratio": 0.77, "CDH1-null viability vs mock": 0.73}
{"gene": "YPEL2", "CDH1-null / parental viability ratio": 1.13, "CDH1-null viability vs mock": 1.06}
{"gene": "KCNH1", "CDH1-null / parental viability ratio": 1.26, "CDH1-null viability vs mock": 0.92}
{"gene": "ITFG2", "CDH1-null / parental viability ratio": 1, "CDH1-null viability vs mock": 0.38}
{"gene": "DUSP2", "CDH1-null / parental viability ratio": 1.54, "CDH1-null viability vs mock": 0.86}
{"gene": "CCNT1", "CDH1-null / parental viability ratio": 0.94, "CDH1-null viability vs mock": 0.75}

Ordered by “CDH1-null viability vs mock” (descending): some entries from above.
{"gene": "MYL10", "CDH1-null / parental viability ratio": 0.86, "CDH1-null viability vs mock": 0.77}
{"gene": "ZFR2", "CDH1-null / parental viability ratio": 1, "CDH1-null viability vs mock": 0.72}
{"gene": "NHP2", "CDH1-null / parental viability ratio": 0.83, "CDH1-null viability vs mock": 0.4}
